Measured values as given in patent publication US20160264648A1 (OSAKA UNIVERSITY, published 2016).
Results are given in words; binding and its absence hold for the method and conditions named. Some binding calls cover weakened binding; strength is not graded here.

Chains of the proteins cited; added tags and fusions are not shown. Lines headed by an entry give the natural chain unless they say otherwise; changes in a name come on top. Residues count along the entry.
UniProt P03457: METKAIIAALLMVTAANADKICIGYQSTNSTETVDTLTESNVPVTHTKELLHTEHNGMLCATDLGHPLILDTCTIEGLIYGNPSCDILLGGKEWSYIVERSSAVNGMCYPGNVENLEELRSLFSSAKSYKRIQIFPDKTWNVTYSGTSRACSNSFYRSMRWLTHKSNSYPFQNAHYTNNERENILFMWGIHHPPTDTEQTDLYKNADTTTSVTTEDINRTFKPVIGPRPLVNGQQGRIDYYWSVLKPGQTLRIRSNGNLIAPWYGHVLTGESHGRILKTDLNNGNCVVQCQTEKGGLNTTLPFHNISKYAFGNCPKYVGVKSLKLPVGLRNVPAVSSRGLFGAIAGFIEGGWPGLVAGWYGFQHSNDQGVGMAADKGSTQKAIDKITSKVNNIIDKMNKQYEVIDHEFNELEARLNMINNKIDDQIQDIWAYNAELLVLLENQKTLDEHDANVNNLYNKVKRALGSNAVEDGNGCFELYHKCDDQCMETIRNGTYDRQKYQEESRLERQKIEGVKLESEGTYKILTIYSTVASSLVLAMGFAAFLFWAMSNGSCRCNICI
UniProt P03452, residues 18-565: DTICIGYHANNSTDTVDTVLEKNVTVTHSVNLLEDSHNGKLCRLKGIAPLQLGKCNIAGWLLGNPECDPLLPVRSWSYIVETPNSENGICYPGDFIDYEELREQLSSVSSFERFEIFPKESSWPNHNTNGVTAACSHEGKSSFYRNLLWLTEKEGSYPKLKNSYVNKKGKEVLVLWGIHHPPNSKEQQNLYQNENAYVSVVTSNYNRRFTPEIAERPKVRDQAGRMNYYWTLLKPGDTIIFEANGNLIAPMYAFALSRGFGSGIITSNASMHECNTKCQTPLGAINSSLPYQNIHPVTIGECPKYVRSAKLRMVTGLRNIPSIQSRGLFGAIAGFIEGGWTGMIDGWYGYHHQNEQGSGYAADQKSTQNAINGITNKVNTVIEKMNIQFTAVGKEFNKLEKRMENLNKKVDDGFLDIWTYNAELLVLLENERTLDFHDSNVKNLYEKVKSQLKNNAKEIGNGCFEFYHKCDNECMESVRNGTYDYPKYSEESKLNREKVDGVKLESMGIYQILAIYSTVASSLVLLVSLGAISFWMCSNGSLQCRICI

Experiments:
[1] = target: hemagglutinin (HA) of influenza A virus A/Turkey/Wisconsin/1/1966 (H9N2) (influenza A virus A/Turkey/Wisconsin/1/1966 (H9N2)) (UniProt P03457); test: IFA on virus-infected MDCK cells
[2] = target: hemagglutinin (HA) of influenza A virus A/PR8/1934 (seasonal H1N1) (influenza A virus A/PR8/1934 (H1N1sea)) (UniProt P03452); test: IFA on virus-infected MDCK cells

B1: human monoclonal antibody (HuMAb) 2H5 (antibody, V domains shown)
VH: QVQLVQSGAEVKKPGSSVKVSCKSSGGNFNNYAVSWVRQAPGQGLEWMGGISPIFGSTNHAQKFQGRVTISADIFTNTAYMELSSLRSDDTAIYYCARGRGYYFYHAMDVWGQGSTVTVSS
VL: QSVLTQPPSVSAAPGQKVTISCSGSSSNIGHNFVSWYQQLPATAPKLLIYDTDKRPSGIPDRFSGSKSGTSATLGITGLQTGDEADYYCGTWDSSLSSVIFGGGTKLTVL
binding [1]: binds | binding [2]: binds
